# Test results reported in the supplement of paper PMC12067093, “Discovery and optimisation of a covalent ligand for TRIM25 and its application to targeted protein ubiquitination” (Chemical Science, 2025).
# By UniProt entry, the sequences of proteins in these tests, tags left out. Where a name states a change or a piece, a line headed by the entry shows the natural chain unless it says otherwise.
# UniProt P48059, whole entry, looked up: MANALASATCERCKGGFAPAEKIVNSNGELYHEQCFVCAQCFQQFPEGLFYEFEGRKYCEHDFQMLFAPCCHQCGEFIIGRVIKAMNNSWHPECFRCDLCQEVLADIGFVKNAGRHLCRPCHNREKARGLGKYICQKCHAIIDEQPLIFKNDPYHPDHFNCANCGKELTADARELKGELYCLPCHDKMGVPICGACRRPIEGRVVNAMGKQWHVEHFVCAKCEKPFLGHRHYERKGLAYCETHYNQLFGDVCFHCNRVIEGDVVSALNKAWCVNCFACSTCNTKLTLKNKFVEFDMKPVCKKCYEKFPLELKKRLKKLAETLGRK
# UniProt Q9Y546: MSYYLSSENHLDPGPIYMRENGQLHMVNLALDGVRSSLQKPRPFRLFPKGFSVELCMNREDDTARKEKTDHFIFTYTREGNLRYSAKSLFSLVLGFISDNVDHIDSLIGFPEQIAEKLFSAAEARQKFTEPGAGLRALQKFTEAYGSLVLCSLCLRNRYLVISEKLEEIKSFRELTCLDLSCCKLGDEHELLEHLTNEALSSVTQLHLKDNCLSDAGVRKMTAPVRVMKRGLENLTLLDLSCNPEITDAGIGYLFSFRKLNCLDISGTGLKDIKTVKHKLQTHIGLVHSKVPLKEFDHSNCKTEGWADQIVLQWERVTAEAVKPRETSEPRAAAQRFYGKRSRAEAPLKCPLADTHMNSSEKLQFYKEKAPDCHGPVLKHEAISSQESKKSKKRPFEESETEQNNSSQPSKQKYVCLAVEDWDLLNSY
# UniProt P53667: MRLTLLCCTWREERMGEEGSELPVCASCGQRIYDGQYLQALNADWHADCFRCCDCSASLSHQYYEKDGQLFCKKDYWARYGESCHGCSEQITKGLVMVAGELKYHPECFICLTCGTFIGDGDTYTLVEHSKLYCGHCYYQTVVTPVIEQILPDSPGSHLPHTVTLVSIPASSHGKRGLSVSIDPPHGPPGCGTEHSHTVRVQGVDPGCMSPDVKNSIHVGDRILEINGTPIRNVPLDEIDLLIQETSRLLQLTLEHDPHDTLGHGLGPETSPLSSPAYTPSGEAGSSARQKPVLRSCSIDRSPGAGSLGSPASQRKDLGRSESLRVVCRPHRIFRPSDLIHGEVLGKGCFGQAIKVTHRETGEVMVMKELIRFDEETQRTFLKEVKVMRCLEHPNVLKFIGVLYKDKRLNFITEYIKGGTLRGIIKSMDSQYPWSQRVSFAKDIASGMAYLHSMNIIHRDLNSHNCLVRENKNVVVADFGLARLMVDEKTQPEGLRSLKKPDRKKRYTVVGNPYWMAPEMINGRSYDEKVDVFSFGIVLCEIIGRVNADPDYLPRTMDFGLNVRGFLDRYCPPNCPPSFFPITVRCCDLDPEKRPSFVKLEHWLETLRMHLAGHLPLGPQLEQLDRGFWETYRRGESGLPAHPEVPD
# UniProt Q9Y4Z0: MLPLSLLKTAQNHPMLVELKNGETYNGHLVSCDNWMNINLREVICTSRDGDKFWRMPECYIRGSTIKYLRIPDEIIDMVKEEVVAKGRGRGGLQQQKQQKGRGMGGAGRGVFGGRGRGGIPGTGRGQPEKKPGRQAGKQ
# UniProt Q8NF37: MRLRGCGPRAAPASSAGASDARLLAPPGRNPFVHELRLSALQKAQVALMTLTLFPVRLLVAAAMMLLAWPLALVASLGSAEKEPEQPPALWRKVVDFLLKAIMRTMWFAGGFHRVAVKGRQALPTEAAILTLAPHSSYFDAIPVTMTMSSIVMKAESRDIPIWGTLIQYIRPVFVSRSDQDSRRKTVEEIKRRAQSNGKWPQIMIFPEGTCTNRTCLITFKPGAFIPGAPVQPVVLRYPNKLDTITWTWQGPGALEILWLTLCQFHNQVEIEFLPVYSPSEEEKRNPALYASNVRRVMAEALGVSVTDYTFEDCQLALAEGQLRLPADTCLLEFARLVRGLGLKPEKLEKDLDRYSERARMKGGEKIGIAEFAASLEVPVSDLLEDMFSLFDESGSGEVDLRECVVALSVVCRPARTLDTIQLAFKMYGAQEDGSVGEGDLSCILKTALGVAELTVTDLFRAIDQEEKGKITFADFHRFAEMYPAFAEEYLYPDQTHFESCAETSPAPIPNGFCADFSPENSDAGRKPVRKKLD
# UniProt P49916: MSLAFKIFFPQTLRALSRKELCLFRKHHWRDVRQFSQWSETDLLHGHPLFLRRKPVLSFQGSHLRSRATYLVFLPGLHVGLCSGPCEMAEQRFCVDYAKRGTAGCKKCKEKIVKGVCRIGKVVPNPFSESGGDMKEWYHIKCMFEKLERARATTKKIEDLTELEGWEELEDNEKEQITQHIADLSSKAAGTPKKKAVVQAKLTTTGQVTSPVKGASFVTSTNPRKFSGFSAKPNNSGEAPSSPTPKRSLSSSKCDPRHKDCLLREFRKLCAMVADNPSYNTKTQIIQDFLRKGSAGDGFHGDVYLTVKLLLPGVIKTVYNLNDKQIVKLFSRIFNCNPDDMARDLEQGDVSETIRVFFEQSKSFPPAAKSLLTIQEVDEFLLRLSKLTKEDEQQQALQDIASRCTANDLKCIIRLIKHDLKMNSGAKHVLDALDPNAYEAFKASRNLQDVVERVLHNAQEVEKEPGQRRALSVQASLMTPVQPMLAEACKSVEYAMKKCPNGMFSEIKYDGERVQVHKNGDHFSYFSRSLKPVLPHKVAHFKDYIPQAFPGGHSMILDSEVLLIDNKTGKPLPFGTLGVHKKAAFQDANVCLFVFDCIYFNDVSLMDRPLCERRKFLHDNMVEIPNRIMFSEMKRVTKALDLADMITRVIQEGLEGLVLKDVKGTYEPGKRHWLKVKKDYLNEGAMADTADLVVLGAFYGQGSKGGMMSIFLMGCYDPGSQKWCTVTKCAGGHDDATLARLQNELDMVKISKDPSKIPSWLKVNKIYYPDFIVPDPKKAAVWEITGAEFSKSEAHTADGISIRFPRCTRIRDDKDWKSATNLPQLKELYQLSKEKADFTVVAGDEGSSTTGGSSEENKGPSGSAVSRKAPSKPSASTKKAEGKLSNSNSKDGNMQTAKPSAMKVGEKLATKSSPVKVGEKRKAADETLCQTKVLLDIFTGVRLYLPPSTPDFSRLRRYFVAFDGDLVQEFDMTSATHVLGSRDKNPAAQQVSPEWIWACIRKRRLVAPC
# UniProt O75427: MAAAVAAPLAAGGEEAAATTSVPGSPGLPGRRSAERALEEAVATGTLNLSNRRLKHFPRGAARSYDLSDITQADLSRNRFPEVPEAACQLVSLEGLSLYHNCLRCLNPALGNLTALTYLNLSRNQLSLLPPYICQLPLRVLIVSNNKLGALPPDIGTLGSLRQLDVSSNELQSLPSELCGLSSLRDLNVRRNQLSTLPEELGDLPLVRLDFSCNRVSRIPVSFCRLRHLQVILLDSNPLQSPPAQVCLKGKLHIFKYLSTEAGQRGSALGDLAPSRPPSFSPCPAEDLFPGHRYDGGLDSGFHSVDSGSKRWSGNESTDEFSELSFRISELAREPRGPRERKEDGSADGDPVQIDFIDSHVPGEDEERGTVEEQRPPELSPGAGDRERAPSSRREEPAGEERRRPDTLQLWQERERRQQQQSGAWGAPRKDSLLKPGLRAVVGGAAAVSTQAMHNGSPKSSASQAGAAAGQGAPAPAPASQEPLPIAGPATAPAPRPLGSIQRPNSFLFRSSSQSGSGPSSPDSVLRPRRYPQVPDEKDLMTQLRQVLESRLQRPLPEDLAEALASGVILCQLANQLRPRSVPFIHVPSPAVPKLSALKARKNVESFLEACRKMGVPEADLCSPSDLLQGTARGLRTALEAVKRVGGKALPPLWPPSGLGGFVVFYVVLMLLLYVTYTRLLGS
# UniProt P17931, whole entry: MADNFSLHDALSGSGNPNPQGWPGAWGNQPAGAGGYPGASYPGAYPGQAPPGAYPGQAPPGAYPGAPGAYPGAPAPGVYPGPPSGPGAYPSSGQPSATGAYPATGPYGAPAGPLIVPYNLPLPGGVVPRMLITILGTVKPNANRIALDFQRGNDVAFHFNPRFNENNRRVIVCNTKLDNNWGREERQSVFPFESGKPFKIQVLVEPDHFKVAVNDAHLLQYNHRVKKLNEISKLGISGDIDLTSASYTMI
# UniProt O60711: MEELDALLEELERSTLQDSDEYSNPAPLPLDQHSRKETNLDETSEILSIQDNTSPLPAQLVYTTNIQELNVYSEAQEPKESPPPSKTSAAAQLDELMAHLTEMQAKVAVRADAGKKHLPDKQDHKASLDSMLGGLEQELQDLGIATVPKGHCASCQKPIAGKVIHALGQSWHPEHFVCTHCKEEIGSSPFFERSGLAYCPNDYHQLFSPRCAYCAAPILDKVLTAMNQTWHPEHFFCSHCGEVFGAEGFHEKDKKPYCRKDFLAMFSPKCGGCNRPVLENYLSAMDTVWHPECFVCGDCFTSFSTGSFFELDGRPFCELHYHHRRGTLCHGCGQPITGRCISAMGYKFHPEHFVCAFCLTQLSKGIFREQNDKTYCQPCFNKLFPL
# UniProt Q96II8: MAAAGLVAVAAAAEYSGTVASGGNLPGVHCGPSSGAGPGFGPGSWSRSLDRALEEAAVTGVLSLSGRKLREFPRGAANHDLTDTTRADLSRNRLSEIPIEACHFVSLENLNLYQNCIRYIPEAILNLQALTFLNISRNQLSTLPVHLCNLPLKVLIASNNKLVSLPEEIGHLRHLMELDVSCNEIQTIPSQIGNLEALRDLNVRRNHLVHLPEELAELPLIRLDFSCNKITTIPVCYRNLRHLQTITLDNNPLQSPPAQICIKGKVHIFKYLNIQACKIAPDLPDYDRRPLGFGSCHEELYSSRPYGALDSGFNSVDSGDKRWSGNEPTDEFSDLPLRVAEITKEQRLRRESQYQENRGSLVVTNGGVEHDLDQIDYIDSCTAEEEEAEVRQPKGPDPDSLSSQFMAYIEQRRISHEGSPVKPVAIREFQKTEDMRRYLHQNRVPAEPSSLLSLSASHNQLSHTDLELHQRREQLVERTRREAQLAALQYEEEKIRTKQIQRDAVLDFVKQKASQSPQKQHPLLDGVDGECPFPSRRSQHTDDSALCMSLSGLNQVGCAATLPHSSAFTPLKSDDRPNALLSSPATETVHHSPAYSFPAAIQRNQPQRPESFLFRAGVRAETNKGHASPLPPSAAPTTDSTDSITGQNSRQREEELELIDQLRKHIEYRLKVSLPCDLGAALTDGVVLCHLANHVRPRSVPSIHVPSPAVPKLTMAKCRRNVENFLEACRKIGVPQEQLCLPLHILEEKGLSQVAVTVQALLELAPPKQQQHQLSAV
# UniProt O95202: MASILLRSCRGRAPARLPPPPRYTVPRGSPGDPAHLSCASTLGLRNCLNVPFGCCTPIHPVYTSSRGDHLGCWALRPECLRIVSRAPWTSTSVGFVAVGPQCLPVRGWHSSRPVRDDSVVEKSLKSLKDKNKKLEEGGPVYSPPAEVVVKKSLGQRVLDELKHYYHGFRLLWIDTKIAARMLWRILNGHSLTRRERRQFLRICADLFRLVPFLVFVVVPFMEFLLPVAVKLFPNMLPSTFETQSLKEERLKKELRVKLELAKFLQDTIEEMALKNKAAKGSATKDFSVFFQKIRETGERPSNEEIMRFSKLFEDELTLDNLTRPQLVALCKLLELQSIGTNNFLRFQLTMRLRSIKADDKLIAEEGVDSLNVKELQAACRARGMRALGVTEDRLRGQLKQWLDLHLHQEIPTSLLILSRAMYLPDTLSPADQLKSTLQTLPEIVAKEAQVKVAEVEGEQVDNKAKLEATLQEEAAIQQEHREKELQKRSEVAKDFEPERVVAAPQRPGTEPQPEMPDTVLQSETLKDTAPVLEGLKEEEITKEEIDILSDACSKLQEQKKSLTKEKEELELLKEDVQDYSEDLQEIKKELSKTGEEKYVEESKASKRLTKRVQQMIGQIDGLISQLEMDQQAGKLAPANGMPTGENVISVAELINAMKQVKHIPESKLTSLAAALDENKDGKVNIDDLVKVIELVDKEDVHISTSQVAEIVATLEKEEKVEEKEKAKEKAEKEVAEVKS
# UniProt Q9UGP4: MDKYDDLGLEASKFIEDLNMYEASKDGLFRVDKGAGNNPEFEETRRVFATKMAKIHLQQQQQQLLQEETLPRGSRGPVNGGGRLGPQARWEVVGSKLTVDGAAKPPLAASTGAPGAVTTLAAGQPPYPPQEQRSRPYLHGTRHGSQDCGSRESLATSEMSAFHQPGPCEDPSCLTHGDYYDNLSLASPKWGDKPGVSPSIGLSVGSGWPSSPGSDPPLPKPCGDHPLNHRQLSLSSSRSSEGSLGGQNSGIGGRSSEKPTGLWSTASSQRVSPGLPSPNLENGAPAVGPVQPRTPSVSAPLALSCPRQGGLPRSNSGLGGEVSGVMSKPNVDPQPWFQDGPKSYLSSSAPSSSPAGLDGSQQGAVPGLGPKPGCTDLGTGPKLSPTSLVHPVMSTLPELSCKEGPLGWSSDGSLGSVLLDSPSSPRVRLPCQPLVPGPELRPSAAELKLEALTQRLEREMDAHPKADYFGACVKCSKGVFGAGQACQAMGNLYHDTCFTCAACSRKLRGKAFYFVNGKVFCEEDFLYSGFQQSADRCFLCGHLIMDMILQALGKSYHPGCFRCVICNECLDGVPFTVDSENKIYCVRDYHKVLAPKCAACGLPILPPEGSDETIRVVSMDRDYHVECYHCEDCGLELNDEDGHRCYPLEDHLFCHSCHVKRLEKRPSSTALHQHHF
# The other results are listed elsewhere or left out.
# Compound: CC1Cc2ccccc2N1C(=O)C1CCCN(C1)C(=O)CCl (mixture of isomers) [TRIM25 ligand 11 (diastereomer mixture)]
# Assay: probe-labelled cysteine peptide fold change vs DMSO (competition) (log2 fold change); higher = less target engagement (more negative = stronger competition)
# Conditions: THP-1, incubation time: 4 h
# 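Also: competitive chemoproteomic profiling in live THP-1 cells with an iodoacetamide desthiobiotin (IA-DTB) probe, comparing probe-labelled peptide intensities in compound-treated cells against DMSO-treated controls.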
Target,probe-labelled cysteine peptide fold change (10 µM),probe-labelled cysteine peptide fold change (50 µM)
LIMS1_P48059_240+252_GLAYCETHYNQLFGDVCFHCNR (UniProt P48059),0.163,0.197
LRRC42_Q9Y546_151+154_FTEAYGSLVLCSLCLR (UniProt Q9Y546),-0.374,0.0723
LIMK1_P53667_49_IYDGQYLQALNADWHADCFR (UniProt P53667),0.206,0.00609
LSM4_Q9Y4Z0_45_EVICTSR (UniProt Q9Y4Z0),-0.0921,-0.127
LPCAT1_Q8NF37_211_WPQIMIFPEGTCTNR (UniProt Q8NF37),-0.0136,-0.00321
LIG3_P49916_499_KCPNGMFSEIKYDGER (UniProt P49916),0.24,0.59
LIMA1_Q9UHB6_393_ETCVECQK (UniProt Q9UHB6),0.109,0.0997
LILRB4_Q8NHJ6_330_SSPAADVQGENFCAAVK (UniProt Q8NHJ6),0.0572,-0.155
LPCAT2_Q7L5N7_223_RTTSGGEWPQILVFPEGTCTNR (UniProt Q7L5N7),0.0202,0.206
LRCH4_O75427_105_CLNPALGNLTALTYLNLSR (UniProt O75427),-0.113,-0.404
LGALS3_P17931_173_VIVCNTK (UniProt P17931),0.033,0.104
LEMD2_Q8NC56_261_KTDEFCQAK (UniProt Q8NC56),0.0439,0.0684
LRR1_Q96L50_220_KLPATIGDLIHLQELNLNDNHLESFSVALCHSTLQK (UniProt Q96L50),0.291,-0.176
LPXN_O60711_152+155_GHCASCQKPIAGK (UniProt O60711),-0.173,-0.355
LRCH4_O75427_571_LQRPLPEDLAEALASGVILCQLANQLRPR (UniProt O75427),-0.0878,0.0638
LRMP_Q12912_355_SFNPLEDDDDCQIK (UniProt Q12912),-0.202,-0.168
LRPPRC_P42704_848_GDLSTALEVAIDCYEK (UniProt P42704),-0.0647,0.0882
LRRC8C_Q8TDW0_728_VESLPDELYFCK (UniProt Q8TDW0),0.407,-0.143

# Not a retest: an excerpt of the list.
Target,probe-labelled cysteine peptide fold change (10 µM),probe-labelled cysteine peptide fold change (50 µM)
LSM4_Q9Y4Z0_45_EVICTSR (UniProt Q9Y4Z0),-0.0921,-0.127
LPCAT1_Q8NF37_211_WPQIMIFPEGTCTNR (UniProt Q8NF37),-0.0136,-0.00321

# Later entries.

Target,probe-labelled cysteine peptide fold change (10 µM),probe-labelled cysteine peptide fold change (50 µM)
LRCH3_Q96II8_689_VSLPCDLGAALTDGVVLCHLANHVRPR (UniProt Q96II8),-0.0635,0.0314
LETM1_O95202_379_ELQAACR (UniProt O95202),-0.0504,0.0933
LRCH3_Q96II8_182_HLMELDVSCNEIQTIPSQIGNLEALR (UniProt Q96II8),-0.193,-0.184
LIMD1_Q9UGP4_630_DYHVECYHCEDCGLELNDEDGHR (UniProt Q9UGP4),0.247,0.0861
LIMS1_P48059_278+281_AWCVNCFACSTCNTK (UniProt P48059),0.119,0.143
LIN37_Q96GY3_28_NQLDAVLQCLLEK (UniProt Q96GY3),-0.0927,-0.121
LIMS1_P48059_193_MGVPICGACR (UniProt P48059),-0.114,-0.0746
LIMK1_P53667_466_DLNSHNCLVR (UniProt P53667),0.0104,0.0471
LIMS1_P48059_10_ANALASATCER (UniProt P48059),0.0433,-0.283
LPXN_O60711_340_CISAMGYK (UniProt O60711),-0.125,-0.00859
LRRC57_Q8N9N7_82_LTVLPDEICNLK (UniProt Q8N9N7),-0.00822,-0.083
LRPPRC_P42704_130_SCGSLLPELKLEER (UniProt P42704),-0.415,-0.186
LRRFIP2_Q9Y608_435_HMCSVLQHK (UniProt Q9Y608),-0.0488,-0.191
LIG1_P18858_280_NNYHPVEDACWKPGQK (UniProt P18858),-0.132,-0.159
LIG3_P49916_929_KAADETLCQTK (UniProt P49916),-0.239,-0.355
LRBA_P50851_832_NSPQCPESMEVR (UniProt P50851),0.0452,0.0579
LRRC41_Q15345_607_GAQPAPLLCSVLK (UniProt Q15345),-0.0129,-0.0638
